# Patent US8742167B2, “Therapeutic formulations based on asiatic acid and selected salts thereof” (Shanghai Institute of Pharmaceutical Industry, priority 2008, dated 2014)
# System: bleomycin-induced pulmonary fibrosis in rats
# Assay: Lung weight index of bleomycin-induced pulmonary fibrosis in rats
# Type: in vivo, SD rats
# Conditions: body weight
# Method: Male SD rats, body weight 250-300 g. The animals were anesthetized with 3% seconal, laid flat and fixed onto the operating table. The necks of the animals were disinfected with alcohol and cut to expose tracheae. A needle was inserted via the space between tracheal rings centripetally, and 5 mg/kg of bleomycin was injected. The rats were kept upright and rotated, in order to keep the solution uniformly distributed in the lungs. Then the incisions were sutured.
# After the rats regained consciousness, they were randomly grouped. The animals were divided into (i) a group receiving administration on the next day after establishing the model and (ii) a group receiving administration at 7 days after the model was established. Included were 27, 9, and 3 mg/kg p.o.×28 d asiatic acid groups, 0.6 mg/kg p.o.×28 d dexamethasone group, 36 mg/kg p.o.×28 d asiaticoside group, model group, and blank group. Normal saline was administered for the model and blank groups. On the 28th day after asiatic acid and asiaticoside administration, survival and weight ratio of lungs were measured; pathological examination and serological examination were performed.
# Effect of on lung weight index of bleomycin-induced pulmonary fibrosis in rats treated with asiatic acid Body weight and lung weight were measured after the rats were sacrificed. Lung weight ratio=(lung weight/body weight)×100%.
SMILES,"weight (g) X ± SD (asiatic acid 3 mg/kg, 28-day administration started 7 day after model established) [g]","weight (g) X ± SD (asiatic acid 3 mg/kg, 28-day administration started from the second day) [g]","weight (g) X ± SD (asiatic acid 9 mg/kg, 28-day administration started 7 day after model established) [g]","weight (g) X ± SD (asiatic acid 9 mg/kg, 28-day administration started from the second day) [g]","weight (g) X ± SD (asiatic acid 27 mg/kg, 28-day administration started 7 day after model established) [g]","weight (g) X ± SD (asiatic acid 27 mg/kg, 28-day administration started from the second day) [g]","weight (g) X ± SD (asiaticoside 36 mg/kg, 28-day administration started 7 day after model established) [g]","weight (g) X ± SD (asiaticoside 36 mg/kg, 28-day administration started from the second day) [g]"
"C[C@H]1[C@H](C)CC[C@]2(C(=O)O)CC[C@]3(C)C(=CC[C@@H]4[C@@]5(C)C[C@@H](O)[C@H](O)[C@@](C)(CO)[C@@H]5CC[C@]43C)[C@H]12 [Asiatic acid, asiatic acid]",317.70 ± 44.19,328.33 ± 31.64,329.30 ± 30.54,316.80 ± 49.73,343.30 ± 49.57,347.8 ± 59.3,–,–
"C[C@H]1[C@H](C)CC[C@]2(C(=O)O[C@@H]3O[C@H](CO[C@@H]4O[C@H](CO)[C@@H](O[C@@H]5O[C@H](C)[C@H](O)[C@@H](O)[C@H]5O)[C@H](O)[C@H]4O)[C@@H](O)[C@H](O)[C@H]3O)CC[C@]3(C)C(=CC[C@@H]4[C@@]5(C)C[C@@H](O)[C@H](O)[C@@](C)(CO)[C@@H]5CC[C@]43C)[C@H]12 [Asiaticoside, asiaticoside]",–,–,–,–,–,–,324.60 ± 44.06,311.30 ± 28.76
